Experimental data from article PMC5942373 (Beilstein Journal of Organic Chemistry, 2018).
HELM strings list residues between dots; [ac] is acetyl, [am] amide, other brackets name non-standard units.

Test: general procedure: Fmoc solid-phase peptide synthesis; Rink-Amide MBHA resin; DIC/HOBt
Details: whole synthesis, overall, on starting amount and capacity of the resin

Substance	isolated yield [%]
PEPTIDE1{[Dau_Aoa].G.F.L.G.K.[am]}|PEPTIDE2{[Nle].N.G.R.E.G.G}$PEPTIDE1,PEPTIDE2,6:R3-7:R2|PEPTIDE2,PEPTIDE2,1:R1-5:R3$$$V2.0	10.6
PEPTIDE1{[Dau_Aoa].G.F.L.G.K.[am]}|PEPTIDE2{A.N.G.R.E.G.G}$PEPTIDE1,PEPTIDE2,6:R3-7:R2|PEPTIDE2,PEPTIDE2,1:R1-5:R3$$$V2.0	2.2
PEPTIDE1{[Dau_Aoa].G.F.L.G.K.[am]}|PEPTIDE2{S.N.G.R.E.G.G}$PEPTIDE1,PEPTIDE2,6:R3-7:R2|PEPTIDE2,PEPTIDE2,1:R1-5:R3$$$V2.0	1.8
Dau=Aoa-GFLGK(c[CONH-PNGRE]-GG)-NH2	6.2
